In publication PMC11110755, “Structure-based virtual screening of unbiased and RNA-focused libraries to identify new ligands for the HCV IRES model system” (RSC Medicinal Chemistry, 2024):

Test system: Tte preQ1-Riboswitch aptamer domain
Assay: MST off-target counter screen, preQ1-riboswitch aptamer domain
Assay type: binding, Thermoanaerobacter tengcongensis
Details: at high concentrations
Protocol: Off-target counter screens by MST were performed as described previously.[31,84] Briefly, the 5′-Cy5-labelled Tte preQ1-Riboswitch aptamer domain (Biomers.net GmbH) was heated to 75 °C for 5 min, cooled down to room temperature for at least 20 min and then diluted to 20 nM in MST buffer (50 mM Tris-HCl pH 7.5, 100 mM KCl, 25 mM MgCl2) and supplemented with compounds 4, 5, 8–13, 18, 21, 22 and 26 to final concentrations of 1000, 100, 10 and 0.001 μM. PreQ1 was used as a positive control. The 5′-Cy5-labelled B. angulatum SAM VI-Riboswitch aptamer domain (Eurofins Genomics GmbH) was heated to 75 °C for 5 min, cooled down to room temperature for at least 20 min and then diluted to 20 nM in MST buffer (50 mM Tris-HCl pH 7.5, 100 mM KCl, 25 mM MgCl2) and supplemented with compounds 5, 9 and 28 to final concentrations of 1000, 100, 10 and 0.001 μM. SAM was used as a positive control. For each experiment, one DMSO negative control was carried out. The final DMSO concentration was 2%. All measurements were performed at least as duplicates for pre-screening and triplicates for KD-determination. MST measurements were analyzed from signals after 18 s laser on-time using the MO.Affinity Analysis software (version 2.3) and exported for statistical analysis and plotting in GraphPad Prism (version 8.0.1., GraphPad Software, Boston, Massachusetts USA, https://www.graphpad.com).

| SMILES | aggregation in preQ1-riboswitch MST counter-screening |
| --- | --- |
| CC(C)NCC(O)COc1ccc2[nH]cc(CCN)c2c1 (centres unmarked) [Compound 11] | AggregaƟon |
| N=C(N)NC(=O)c1nc(Cl)c(N)nc1N [Compound 26, amiloride, reference compound] | AggregaƟon |
